Results are given in words; binding and its absence hold for the method and conditions named. In cells and extracts the contact can be indirect. A yes stands for co-enrichment or nearness to the bait. Other partners may have been found.
Target: Histone deacetylase 7 (HDAC7), wild type (mouse) (UniProt Q8C2B3)
Assay: affinity purification with mass spectrometry; lysates of Hdac7-WT or Hdac7-L112A OE NMCMs immunoprecipitated by FLAG antibody on beads; on-bead digestion, LC-MS/MS, label-free quantification (MaxQuant LFQ)

Chains of the proteins cited; added tags and fusions are not shown.
UniProt Q8C2B3: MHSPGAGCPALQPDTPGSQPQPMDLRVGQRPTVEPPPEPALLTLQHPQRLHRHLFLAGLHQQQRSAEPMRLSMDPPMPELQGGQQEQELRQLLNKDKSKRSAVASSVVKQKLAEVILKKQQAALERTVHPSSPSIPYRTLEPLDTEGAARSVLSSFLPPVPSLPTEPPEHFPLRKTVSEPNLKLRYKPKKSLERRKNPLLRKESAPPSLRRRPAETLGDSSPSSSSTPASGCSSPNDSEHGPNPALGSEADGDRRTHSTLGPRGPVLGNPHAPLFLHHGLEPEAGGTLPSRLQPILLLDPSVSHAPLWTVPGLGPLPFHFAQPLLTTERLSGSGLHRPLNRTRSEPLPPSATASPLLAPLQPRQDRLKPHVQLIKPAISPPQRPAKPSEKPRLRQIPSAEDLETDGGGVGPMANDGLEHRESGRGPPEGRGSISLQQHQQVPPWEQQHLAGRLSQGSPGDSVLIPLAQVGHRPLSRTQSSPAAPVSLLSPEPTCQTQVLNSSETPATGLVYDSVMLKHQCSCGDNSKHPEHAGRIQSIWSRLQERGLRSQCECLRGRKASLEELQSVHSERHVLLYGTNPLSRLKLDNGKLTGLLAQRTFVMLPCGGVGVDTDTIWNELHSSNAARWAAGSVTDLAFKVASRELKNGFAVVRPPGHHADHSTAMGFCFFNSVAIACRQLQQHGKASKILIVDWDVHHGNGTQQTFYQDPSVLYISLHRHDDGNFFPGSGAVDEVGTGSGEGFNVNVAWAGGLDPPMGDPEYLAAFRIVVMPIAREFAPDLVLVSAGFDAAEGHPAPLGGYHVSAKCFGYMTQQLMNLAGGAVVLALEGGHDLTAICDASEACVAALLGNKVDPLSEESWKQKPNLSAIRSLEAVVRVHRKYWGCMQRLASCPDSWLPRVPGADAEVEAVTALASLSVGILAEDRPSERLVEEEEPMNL
UniProt O70126: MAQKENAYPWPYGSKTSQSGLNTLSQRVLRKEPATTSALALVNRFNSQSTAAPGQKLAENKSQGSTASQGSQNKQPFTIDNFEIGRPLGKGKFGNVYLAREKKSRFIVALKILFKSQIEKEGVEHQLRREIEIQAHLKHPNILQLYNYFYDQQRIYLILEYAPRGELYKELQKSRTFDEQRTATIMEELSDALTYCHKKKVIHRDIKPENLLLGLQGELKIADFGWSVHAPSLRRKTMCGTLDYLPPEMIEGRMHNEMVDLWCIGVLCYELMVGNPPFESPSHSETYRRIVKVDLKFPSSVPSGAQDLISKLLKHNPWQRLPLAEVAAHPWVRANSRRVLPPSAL
UniProt Q61881: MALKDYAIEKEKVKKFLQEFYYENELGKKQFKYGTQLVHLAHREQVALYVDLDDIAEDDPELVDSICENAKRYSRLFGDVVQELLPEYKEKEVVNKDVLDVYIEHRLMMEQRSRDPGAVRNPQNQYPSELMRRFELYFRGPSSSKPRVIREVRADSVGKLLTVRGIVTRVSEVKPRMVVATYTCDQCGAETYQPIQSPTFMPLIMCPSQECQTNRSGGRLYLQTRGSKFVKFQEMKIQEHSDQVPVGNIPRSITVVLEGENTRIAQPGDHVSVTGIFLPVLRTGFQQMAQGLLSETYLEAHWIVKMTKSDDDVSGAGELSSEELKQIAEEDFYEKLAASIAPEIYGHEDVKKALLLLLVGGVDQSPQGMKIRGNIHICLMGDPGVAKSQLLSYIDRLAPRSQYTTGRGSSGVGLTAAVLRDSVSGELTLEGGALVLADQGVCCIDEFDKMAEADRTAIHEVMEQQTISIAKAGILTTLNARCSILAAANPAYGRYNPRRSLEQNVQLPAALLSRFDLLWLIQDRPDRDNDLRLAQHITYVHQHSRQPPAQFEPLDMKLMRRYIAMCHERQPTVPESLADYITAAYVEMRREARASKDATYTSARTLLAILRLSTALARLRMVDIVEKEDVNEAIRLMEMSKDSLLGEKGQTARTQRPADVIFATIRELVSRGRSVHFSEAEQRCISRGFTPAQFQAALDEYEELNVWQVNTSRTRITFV

Row | binding | Molecule
1 | binds | AURKB (from UniProt O70126 1-345)
2 | binds | CDK2 (from UniProt P97377 1-346)
3 | binds | Minichromosome maintenance protein 7 (MCM7) (from UniProt Q61881 1-719)
4 | binds | SWI/SNF-related, matrix-associated actin-dependent regulator of chromatin, subfamily A, containing DEAD/H box 1 (SMARCAD1) (protein, UniProt Q04692 1-1021) MNLFNLDRFRFEKRSKIEEAPEAAPQPSQARPSSPISLSAEEENAEGEGSRANTPDSDVTEKTEDSSVPEPPDNERKASLSCFQNQRAIQEYIDLSSDTEDVSPNCSSTVQEKKFSKDTVIIVSEPSEDEESHDLPSVTRRNDSSELEDLSELEDLKDAKLQTLKELFPQRSDSDLLKLIESTSTMDGAIAAALLMFGDAGGGPRKRKLSSSSEEDDVNDDQSVKQPRGDRGEESNESAEASSNWEKQESIVLKLQKEFPNFDKQELREVLKEHEWMYTEALESLKVFAEDQDVQCASQSEVTNGKEVARNQNYSKNATKIKMKQKISVKPQNGFNKKRKKNVFNPKKAVEDSEYDSGSDAGSSLDEDYSSCEEVMEDGYKGKILHFLQVSSIAELTLIPKCSQKKAQKITELRPFNNWEALFTKMSKINGLSEDLIWNCKTVIQERDVVIRLMNKCEDISNKLTKQVTMLTGNGGGWNREQPSLLNQSLSLKPYQKVGLNWLALVHKHGLNGILADEMGLGKTIQAIAFLAYLFQEGNKGPHLIVVPASTIDNWLREVNLWCPSLNVLCYYGSQEERKQIRFNIHNKYEDYNVIVTTYNCAISSSDDRSLFRRLKLNYAIFDEGHMLKNMGSIRYQHLMTINARNRLLLTGTPVQNNLLELMSLLNFVMPHMFSSSTSEIRRMFSSKTKPADEQSIYEKERIAHAKQIIKPFILRRVKEEVLKLLPPKKDRIELCAMSEKQEQLYSGLFNRLKKSINNLEKNTEMCNVMMQLRKMANHPLLHRQYYTPEKLKEMSQLMLKEPTHCEANPDLIFEDMEVMTDFELHVLCKQYQHINSYQLDMDLILDSGKFRALGCILSELKQKGDRVVLFSQFTMMLDILEVLLKHHQHRYLRLDGKTQISERIHLIDEFNTDMDIFVFLLSTKAGGLGINLTSANVVILHDIDCNPYNDKQAEDRCHRVGQTKEVLVIKLISQGTIEESMLKINQQKLKLEQDMTTVDEADEGSMPADIATLLKTSMGL

From article PMC12059635
